Experimental findings from patent publication US4990531A, “Derivatives of 1-arylsulphonyl-2-pyrrolidinone and their use as medicaments” (Roussel Uclaf, priority 1988, dated 1991) are described below.

The assay concerns contractions induced by histamine, isolated ileum. Briefly: Antagonism of histamine-induced contractions, isolated guinea-pig ileum. The settings on record: histamine 1×10^-5 M; contact time one minute; read-out: Antagonism with various agents (IC50): Istam. As to the method:
The interaction of the compounds with various receptors was evaluated on the isolated ileum of a guinea-pig according to the following method.
Segments of the ileum of guinea-pigs of 2.5-3 cm were washed and immediately suspended in a bath containing 10 ml of Tyrode's solution at 37° C. and aerated with a mixture of oxygen (95%) and carbon dioxide (5%). After a stabilization period of at least 30 minutes contractions were recorded, while the preparation was maintained under constant tension of 1 g, by means of a detector connected to a polygraph. The agonistic action was evaluated by leaving the compound in contact with the isolated tissue for a period necessary to show the maximum […]; then it was washed with the Tyrode's solution. The following dose was added only after the preparation had returned to its base line. Arecoline was used as a reference product. The antagonist action was evaluated on the contractions induced by acetylcholine (1×10^-6 M), histamine (1×10^-5 M), serotonine (1×10^-6 M) and barium chloride (2×10^-4 M). […] The contact time before adding the agonist was one minute.
For each compound the does response curves are obtained with 4 to 6 different concentrations and 3 to 5 independent tests. The agonist activity is expressed by pD2 (negative logarithm of the dose which produces 50% of the maximum effect).

In general, IC50 refers to the concentration that inhibits the measured activity by half. In the case of `CN(C)CCOC(c1ccccc1)c1ccccc1` [Diphenyldramine, reference compound], the IC50 came to 830 nM.
